Measurements reported in PubChem BioAssay AID1259279 (Sanger Institute, 2017)
In all, the deposit lists 794 reagents; shown is an unselected part. Of all reagents, 11 (1.4%) got an active call. 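Calls reflect knock-down alone in the vehicle arm, not drug synergy.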 Not all columns of the deposit are shown. No sequences are given here. Not stated in the record: the amount of reagent, the time to read-out.

Purpose: 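Find kinases whose loss works with colorectal cancer drugs to kill cells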 (primary screen)
System: LS180 human colorectal cancer cells
Reagents: siRNA pool against human genes
Treatment: anchor drug BYL719 at 1 µM, cetuximab at 5 µg/ml or trametinib at 10 nM, or DMSO vehicle only
Measurement: 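Cell viability versus a non-targeting pool, as a fraction and as a robust z-score from replicate means, plus a synergy score for each of three drugs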
Scale: viability z-score, no drug: higher = more viable cells after knock-down
Active means: 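a knock-down is called active, meaning essential, if its viability z-score in vehicle alone falls below -3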
Meaning of the calls: active = essential (knock-down alone cuts viability); inactive = no change without drug

| target gene | PubChem SID | viability z-score, no drug | outcome |
| --- | --- | --- | --- |
| MAPKAPK2 (GeneID 9261) | SID56478668 | -0.655 | inactive |
| AMHR2 (GeneID 269) | SID56478996 | -0.0781 | inactive |
| MKNK2 (GeneID 2872) | SID152150791 | -0.705 | inactive |
| PANK1 (GeneID 53354) | SID56478765 | 0.86 | inactive |
| NADK (GeneID 65220) | SID152150245 | 0.425 | inactive |
| PIM2 (GeneID 11040) | SID56479034 | -1.13 | inactive |
| PFKP (GeneID 5214) | SID56479236 | -1.37 | inactive |
| UCK2 (GeneID 7371) | SID56478981 | 0.43 | inactive |
| DGKH (GeneID 160851) | SID134311961 | -1.48 | inactive |
| PLK2 (GeneID 10769) | SID56478648 | 0.401 | inactive |
| MAP2K6 (GeneID 5608) | SID135620765 | 0.783 | inactive |
| PIK3C2A (GeneID 5286) | SID152154179 | -2.94 | inactive |
| RELA (GeneID 5970) | SID135620694 | -0.757 | inactive |
| ROR2 (GeneID 4920) | SID56478550 | 0.0794 | inactive |
| MAPK10 (GeneID 5602) | SID56478791 | 0.86 | inactive |
| RPS6KA4 (GeneID 8986) | SID152147672 | -0.963 | inactive |
| CDC42BPB (GeneID 9578) | SID152149037 | 0.86 | inactive |

The list goes on; the last 3 above are carried over.
| target gene | PubChem SID | viability z-score, no drug | outcome |
| --- | --- | --- | --- |
| MAPK10 (GeneID 5602) | SID56478791 | 0.86 | inactive |
| RPS6KA4 (GeneID 8986) | SID152147672 | -0.963 | inactive |
| CDC42BPB (GeneID 9578) | SID152149037 | 0.86 | inactive |
| PIP5K1B (GeneID 8395) | SID152154468 | 0.86 | inactive |
| MAPK1 (GeneID 5594) | SID152148532 | -1.17 | inactive |
| AK7 (GeneID 122481) | SID152153423 | 0.813 | inactive |
| NRBP1 (GeneID 29959) | SID135620974 | -0.8 | inactive |
| GRK5 (GeneID 2869) | SID152146923 | 0.86 | inactive |
| SGK1 (GeneID 6446) | SID152156682 | 0.139 | inactive |
| ACVR1 (GeneID 90) | SID152154539 | -2.39 | inactive |
| DGKD (GeneID 8527) | SID56479091 | 0.86 | inactive |
| MYLK4 (GeneID 340156) | SID152150692 | -0.936 | inactive |
| PRKAG3 (GeneID 53632) | SID56479232 | -2.8 | inactive |
| SKAP1 (GeneID 8631) | SID152154182 | 0.39 | inactive |
| DYRK1B (GeneID 9149) | SID56478878 | -1.2 | inactive |
| KSR1 (GeneID 8844) | SID152156641 | -2.48 | inactive |
| MST1R (GeneID 4486) | SID152152898 | 0.415 | inactive |
| CKMT1B (GeneID 1159) | SID135621236 | -0.878 | inactive |
| TSSK4 (GeneID 283629) | SID56478999 | 0.86 | inactive |
| AURKB (GeneID 9212) | SID152151121 | 0.86 | inactive |
| PDK1 (GeneID 5163) | SID56478951 | 0.86 | inactive |
| LMTK1 (GeneID 9625) | SID152151616 | 0.387 | inactive |
| PRKCZ (GeneID 5590) | SID56478675 | -1.49 | inactive |
| TGFBR2 (GeneID 7048) | SID152152630 | 0.556 | inactive |
| OXSR1 (GeneID 9943) | SID152151868 | 0.86 | inactive |
| DSTYK (GeneID 25778) | SID152147164 | 0.86 | inactive |
| IKBKG (GeneID 8517) | SID152147833 | 0.622 | inactive |
| GUCY2D (GeneID 3000) | SID135620972 | -5.92 | active |
| SPEG (GeneID 10290) | SID56479185 | 0.86 | inactive |
| ERBB3 (GeneID 2065) | SID135620617 | -0.322 | inactive |
| EEF2K (GeneID 29904) | SID152154873 | 0.592 | inactive |
| STK39 (GeneID 27347) | SID152151246 | -0.731 | inactive |
| FER (GeneID 2241) | SID152156672 | 0.778 | inactive |
| FGFR2 (GeneID 2263) | SID152155469 | 0.439 | inactive |
| DGKA (GeneID 1606) | SID152151940 | -2.34 | inactive |
| GATA3 (GeneID 2625) | SID134310077 | -0.186 | inactive |
